Measured values taken from the supplement of paper PMC7646827.
Many values rest on one well or one pass, so single values are uncertain.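 All cells are established human bladder cancer lines, one derived from a patient-derived xenograft. A luminescent ATP assay measured viability as percent inhibition relative to vehicle across seven dilutions. The paper rates scores above 59 very active, 30–59 active, 21–29 semi-active, 9–20 low active, below 9 inactive.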

Columns and labels:
Assay in all cases: drug sensitivity score DSS3 (score 0-100); higher = more sensitive; extreme values may be limits of the assay
Settings in all cases: culture: 3D, ultra-low attachment; treatment time: 5 days
J82 = test system: J82
SCaBER = test system: SCaBER
UM-UC-14 = test system: UM-UC-14
TCCSUP = test system: TCCSUP
UM-UC-6 = test system: UM-UC-6
UM-UC-5 = test system: UM-UC-5
UM-UC-17 = test system: UM-UC-17
UM-UC-12 = test system: UM-UC-12
BC8149 = test system: BC8149
5637 = test system: 5637
UM-UC-1 = test system: UM-UC-1
SW780 = test system: SW780
T-24 = test system: T-24
UM-UC-18 = test system: UM-UC-18
UM-UC-3 = test system: UM-UC-3
UM-UC-9 = test system: UM-UC-9
UM-UC-15 = test system: UM-UC-15

Compound | drug sensitivity score DSS3 (J82) | drug sensitivity score DSS3 (SCaBER) | drug sensitivity score DSS3 (UM-UC-14) | drug sensitivity score DSS3 (TCCSUP) | drug sensitivity score DSS3 (UM-UC-6) | drug sensitivity score DSS3 (UM-UC-5) | drug sensitivity score DSS3 (UM-UC-17) | drug sensitivity score DSS3 (UM-UC-12) | drug sensitivity score DSS3 (BC8149) | drug sensitivity score DSS3 5637 | drug sensitivity score DSS3 (UM-UC-1) | drug sensitivity score DSS3 (SW780) | drug sensitivity score DSS3 (T-24) | drug sensitivity score DSS3 (UM-UC-18) | drug sensitivity score DSS3 (UM-UC-3) | drug sensitivity score DSS3 (UM-UC-9) | drug sensitivity score DSS3 (UM-UC-15)
COCCNc1cc(NC(=O)N2CCCc3cc(CN4CCN(C)CC4=O)c(C=O)nc32)ncc1C#N [FGF401] (max dose 10000 nM) | 0 | 0 | 0 | 0.194 | 1.76 | 0 | 0.649 | 0 | 0 | 0.144 | 0 | 0.337 | 0 | 0 | 0.343 | 0 | –
Cc1c(NC(=O)c2cc(C(N)=O)nc3cc(F)ccc23)c(C(F)(F)F)nn1Cc1ccc(C#N)cc1 [BAY-876] (max dose 10000 nM) | 0 | 0 | 5.12 | 0 | 0.214 | 0.885 | 0 | 3.42e-05 | 0 | 0.217 | 2.67 | 0.0125 | 0 | 0 | 0.414 | 9.02 | –
CCn1c(=O)c2c(nc(/C=C/c3ccc(OC)c(OC)c3)n2C)n(CC)c1=O [Istradefylline] (max dose 10000 nM) | 0 | 0 | 0 | 0 | 0 | 0 | 0 | 0 | 0 | 0 | 0 | 0 | 0 | 0 | 0 | 0 | –
Cn1cnc2c(F)c(Nc3ccc(Br)cc3Cl)c(C(=O)NOCCO)cc21 [Selumetinib, Selumetinib (AZD6244)] (max dose 10000 nM) | 0.0675 | 12.1 | 1.6 | 3.26 | 2.12 | 8.92 | 1.35 | 1.39 | 6.05 | 4.32 | 2 | 0.77 | 8.77 | 1.91 | 21.4 | 0.373 | –
COc1cc(-c2cc(-c3ccc(Cl)cc3)[nH]c(=O)n2)ccc1O [LIT-927] (max dose 10000 nM) | 0 | 0 | 0 | 0 | 0.00837 | 0 | 0 | 0 | 0 | 0 | 0 | 0 | 0.63 | 0 | 0 | 0 | –
Cc1cnc(-c2cnc(NCCNc3ccc(C#N)cn3)nc2-c2ccc(Cl)cc2Cl)[nH]1 (max dose 10000 nM) | 0 | 0 | 0 | 0 | 0 | 0 | 0 | 0 | 0 | 0 | 0 | 0 | 0.0229 | 0 | 0 | 0 | –
CN(c1ncccc1CNc1nc(Nc2ccc3c(c2)CC(=O)N3)ncc1C(F)(F)F)S(C)(=O)=O (max dose 10000 nM) | 0.627 | 0.803 | 1.26 | 2.07 | 1.46 | 0.0891 | 0 | 0.989 | 1.25 | 2.09 | 1.73 | 0 | 1.5 | 1.04 | 0 | 0 | –
CCOc1cc(N2CCC(O)CC2)ccc1Nc1ncc2c(n1)N(C)c1ccccc1C(=O)N2C [XMD8-92] (max dose 10000 nM) | 0 | 0 | 2.1 | 3.93 | 0.181 | 0 | 0 | 0 | 0 | 0 | 0 | 0 | 0 | 0 | 1.09 | 0 | –
CC(C)(O)CNc1ncc(-c2ccnc(Nc3ccnc(Cl)c3)n2)c(CC2CC2)n1 [VPS34-IN1] (max dose 10000 nM) | 0 | 0 | 1.19 | 11.9 | 8.65 | 0 | 2.35 | 0 | 9.89 | 14 | 8.05 | 0 | 0 | 0.173 | 2.02 | 3.68 | –
CN1CC(=O)N2[C@H](c3ccc4c(c3)OCO4)c3[nH]c4ccccc4c3C[C@@H]2C1=O [Tadalafil] (max dose 10000 nM) | 0 | 0 | 0 | 0 | 0 | 0 | 0 | 0 | – | 0 | 0 | 0 | 0 | 0 | 0 | 0 | 4.16
CCOC(=O)NCCCC(=O)NCCc1ccccc1 (max dose 10000 nM) | 0 | 5.74 | 0 | 4.85 | 0 | 0 | 12.9 | 0 | – | 19.3 | 0 | 1.82 | 0 | 3.47 | 0 | 0 | 16.1
NC(=O)c1cc(F)cc2c1C(=O)N(C1CCN(C3CCC(F)(F)CC3)CC1)C2 [NMS-P118] (max dose 10000 nM) | 1.52 | 0.69 | 0 | 0 | 13 | 0 | 0 | 0 | 0 | 0 | 0 | 0 | 9.08 | 0 | 0 | 0 | –
O=C(Nc1ccc(OC(F)(F)F)cc1)c1sccc1NCc1ccnc2ccccc12 [OSI-930] (max dose 10000 nM) | 0 | 7.07 | 0 | 0 | 0 | 0 | 0 | 0 | – | 0 | 4.24 | 0 | 0 | 0 | 0.697 | 0 | 0
CC1(C)CCC(CN2CCN(c3ccc(C(=O)NS(=O)(=O)c4ccc(NCC5CCOCC5)c([N+](=O)[O-])c4)c(Oc4cnc5[nH]ccc5c4)c3)CC2)=C(c2ccc(Cl)cc2)C1 [Venetoclax (ABT-199, GDC-0199)] (max dose 10000 nM) | 0 | 0 | 0 | 0 | 0 | 0.958 | 0 | 0 | 0 | 0 | 48.3 | 0 | 0 | 0 | 0 | 0 | –
Cc1cc(F)c(C(=O)Nc2cccc(-c3nncn3C(C)C)n2)cc1-n1cnc(C2CC2)c1 [Selonsertib (GS-4997)] (max dose 10000 nM) | 0 | 0 | 0 | 0 | 0 | 0 | 0 | 0 | 0 | 0.0683 | 0 | 0 | 0 | 0 | 0 | 0 | –
O=C(O)c1ccc(-c2c[nH]c3ncc(-c4ccccc4)cc23)cc1C1CCCC1 (max dose 10000 nM) | – | 0 | 4.01 | 6.46 | 10.5 | 0 | 0 | 0 | 0 | 12.5 | 4.77 | – | 0 | 0 | 0 | 12.1 | –
OC[C@H]1O[C@@H](c2ccc(F)c(Cc3cc4ccccc4s3)c2)[C@H](O)[C@@H](O)[C@@H]1O [Ipragliflozin (ASP1941)] (max dose 10000 nM) | 0 | 0 | 0 | 0 | 0 | 0 | 0 | 0 | 0 | 0 | 0 | 0 | 0 | 0 | 0 | 0 | –
CO[C@H]1C[C@@H]2CC[C@@H](C)[C@@](O)(O2)C(=O)C(=O)N2CCCC[C@H]2C(=O)O[C@H]([C@H](C)C[C@@H]2CC[C@@H](OCCO)[C@H](OC)C2)CC(=O)[C@H](C)/C=C(\C)[C@@H](O)[C@@H](OC)C(=O)[C@H](C)C[C@H](C)/C=C/C=C/C=C/1C [Everolimus (RAD001)] (max dose 10000 nM) | 0.0237 | 0 | 0 | 26.2 | 0 | 0 | 0 | 0 | – | 1.87 | 18.6 | 0 | 0 | 0 | 0 | 0 | 0
Cn1cc(/C=C2\C(=O)Nc3cccnc32)c2ccccc21 (max dose 10000 nM) | 0 | 3.78e-05 | 0 | 0 | 0 | 0 | 0 | 0 | 0 | 0.979 | 0 | 0 | 0 | 1.28 | 0 | 0 | –
COc1ccc(C(=O)C2CCN(CC(=O)N(Cc3nc4c(c(=O)[nH]3)COCC4)CC3CC3)CC2)cc1 [NVP-TNKS656] (max dose 10000 nM) | 0 | 0 | 24.9 | 22.7 | 10.9 | 0 | 11.9 | 0 | – | 0.113 | 26.1 | 0 | 0 | 0 | 9.57 | 0 | 0
O=C(c1cc(Cc2n[nH]c(=O)c3ccccc23)ccc1F)N1CCN(C(=O)C2CC2)CC1 (max dose 10000 nM) | 0 | 0.0186 | 0 | 1.4 | 0 | 0 | 0 | 0 | – | 0 | 0 | 0 | 0 | 0 | 0 | 0 | 0

Two entries picked at random from the list so far:
Compound | drug sensitivity score DSS3 (J82) | drug sensitivity score DSS3 (SCaBER) | drug sensitivity score DSS3 (UM-UC-14) | drug sensitivity score DSS3 (TCCSUP) | drug sensitivity score DSS3 (UM-UC-6) | drug sensitivity score DSS3 (UM-UC-5) | drug sensitivity score DSS3 (UM-UC-17) | drug sensitivity score DSS3 (UM-UC-12) | drug sensitivity score DSS3 (BC8149) | drug sensitivity score DSS3 5637 | drug sensitivity score DSS3 (UM-UC-1) | drug sensitivity score DSS3 (SW780) | drug sensitivity score DSS3 (T-24) | drug sensitivity score DSS3 (UM-UC-18) | drug sensitivity score DSS3 (UM-UC-3) | drug sensitivity score DSS3 (UM-UC-9) | drug sensitivity score DSS3 (UM-UC-15)
CN1CC(=O)N2[C@H](c3ccc4c(c3)OCO4)c3[nH]c4ccccc4c3C[C@@H]2C1=O [Tadalafil] (max dose 10000 nM) | 0 | 0 | 0 | 0 | 0 | 0 | 0 | 0 | – | 0 | 0 | 0 | 0 | 0 | 0 | 0 | 4.16
CCn1c(=O)c2c(nc(/C=C/c3ccc(OC)c(OC)c3)n2C)n(CC)c1=O [Istradefylline] (max dose 10000 nM) | 0 | 0 | 0 | 0 | 0 | 0 | 0 | 0 | 0 | 0 | 0 | 0 | 0 | 0 | 0 | 0 | –
